# Results from one PubChem assay

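Plate-reader measure of the Venus reporter marking one vaccinia stage in infected cells (the cell line is not named here); read time unknown.
The test concentration is not given here.
Percent change in Venus reporter signal; lower (more negative) values mean stronger inhibition of that viral stage.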

Values are in %.
The controls that fix the scale are not given here.
Common to all entries: measured here: Venus reporter, other viral stage.
Part of the compounds only, not a random draw; the main read-out is not listed here.

structure | activity change (Venus) (%)
O=C(c1ccc2c(c1)OCO2)N1CC(=O)N2[C@H](CO)[C@@H](c3ccc(C#CCC4CCCC4)cc3)[C@H]2C1 | -83.34
C[C@H]1CN([C@@H](C)CO)S(=O)(=O)c2ccc(C#Cc3ccc(F)cc3)cc2O[C@H]1CN(C)C(=O)NC1CCCC1 | -57.12
C[C@@H]1CN([C@@H](C)CO)C(=O)c2cc(C#Cc3ccccc3F)cnc2O[C@@H]1CN(C)C | -38.38
Cc1ccc(S(=O)(=O)N(C)C[C@H]2Oc3ccc(NC(=O)NC4CCCCC4)cc3CC(=O)N([C@H](C)CO)C[C@H]2C)cc1 | -29.4
C[C@@H]1CN([C@@H](C)CO)S(=O)(=O)c2ccc(C#CCC3CCCC3)cc2O[C@@H]1CN(C)C(=O)c1cnccn1 | -23.99
C[C@@H]1CN([C@H](C)CO)C(=O)Cc2cc(NC(=O)C3CC3)ccc2O[C@@H]1CN(C)Cc1ccc(-c2ccccc2)cc1 | -52.76
N#Cc1ccc(-c2ccc3c(c2)[C@@H]2[C@@H](CCN2C(=O)C2CCCC2)[C@@H](CO)N3)cc1 | -24.03
Cc1ccc(-c2ccc3c(c2)O[C@H](CN(C)C(=O)Nc2ccc(F)cc2)[C@H](C)CN([C@H](C)CO)S3(=O)=O)cc1 | -60.16
C[C@@H]1CN([C@@H](C)CO)C(=O)c2cc(NC(=O)c3ccncc3)ccc2O[C@@H]1CN(C)Cc1ccc(Oc2ccccc2)cc1 | -37.72
COc1ccc(C#Cc2ccc([C@H]3[C@@H](CO)N4CCCCN(C(=O)c5ccncc5)C[C@@H]34)cc2)cc1 | -52.94
COc1cccc(NC(=O)N(C)C[C@@H]2Oc3cc(/C=C/c4ccccc4)ccc3S(=O)(=O)N([C@H](C)CO)C[C@H]2C)c1 | -55.18
COc1ccc(CN(C)C[C@@H]2OCCCC[C@H](C)Oc3ccc(NS(=O)(=O)c4ccc(C)cc4)cc3C(=O)N([C@H](C)CO)C[C@H]2C)cc1 | -62.83
Cc1noc(C)c1S(=O)(=O)Nc1ccc2c(c1)CC(=O)N([C@@H](C)CO)C[C@@H](C)[C@@H](CN(C)Cc1ccc(C(F)(F)F)cc1)O2 | -36.65
Cc1ccc(S(=O)(=O)Nc2ccc3c(c2)C(=O)N([C@H](C)CO)C[C@H](C)[C@@H](CN(C)CC2CCCCC2)OCCCC[C@H](C)O3)cc1 | -50.44
COc1cccc(C#Cc2ccc([C@H]3[C@@H](CO)N4C(=O)CN(C(=O)c5ccccc5)C[C@@H]34)cc2)c1 | -48.04
CCCC#Cc1ccc2c(c1)O[C@@H](CN(C)C(=O)C1CCC1)[C@H](C)CN([C@@H](C)CO)S2(=O)=O | -25.85
C[C@H]1CN([C@@H](C)CO)S(=O)(=O)c2ccc(/C=C/c3ccccc3)cc2O[C@H]1CN(C)Cc1ccccc1 | -59.68
C[C@H]1CN([C@@H](C)CO)C(=O)c2cc(C#Cc3ccccc3)cnc2O[C@H]1CN(C)C(=O)CCN1CCCCC1 | -20.77
CO[C@H]1CN(C)C(=O)c2ccc(NC(=O)c3ccc(Oc4ccccc4)cc3)cc2OC[C@H](C)NC[C@@H]1C | -71.03
C[C@@H]1CCCCO[C@@H](CN(C)Cc2ccc3c(c2)OCO3)[C@H](C)CN([C@H](C)CO)C(=O)c2cc(NC(=O)Nc3ccc4c(c3)OCO4)ccc2O1 | -50.66
C[C@@H]1CCCCO[C@H](CN(C)Cc2ccccc2)[C@@H](C)CN([C@@H](C)CO)C(=O)c2cc(NC(=O)C3CCCCC3)ccc2O1 | -48.93
C[C@H]1CN([C@@H](C)CO)C(=O)c2c(c3ccccc3n2C)-c2ccccc2CO[C@@H]1CN(C)S(=O)(=O)c1ccc([N+](=O)[O-])cc1 | -39.26
Cc1ccc(S(=O)(=O)N2CC[C@@H]3[C@@H](CO)N(C)c4ccc(-c5ccccc5F)cc4[C@@H]32)cc1 | -35.95
C[C@@H]1CN([C@@H](C)CO)S(=O)(=O)c2ccc(C#Cc3ccc(F)cc3)cc2O[C@@H]1CN(C)C(=O)c1ccccn1 | -45.41
CC(C)CC#Cc1ccc2c(c1)O[C@H](CN(C)Cc1ccc(F)cc1)[C@H](C)CN([C@@H](C)CO)S2(=O)=O | -55.44
O=C(C[C@H]1CC[C@@H](NC(=O)c2cccc(F)c2)[C@@H](CO)O1)NCc1ccc(Oc2ccccc2)cc1 | -41.37
C[C@@H]1CN([C@H](C)CO)C(=O)c2cc(NS(=O)(=O)c3ccccc3)ccc2O[C@@H](C)CCCCO[C@H]1CN(C)Cc1ccccc1 | -24.64
C[C@@H]1CCCCO[C@H](CN(C)Cc2ccc(Cl)c(Cl)c2)[C@@H](C)CN([C@@H](C)CO)C(=O)c2cc(NS(=O)(=O)c3ccccc3)ccc2O1 | -85.32
C[C@@H]1CN([C@@H](C)CO)C(=O)c2cc(NC(=O)CCC(F)(F)F)ccc2O[C@@H](C)CCCCO[C@H]1CN(C)Cc1ccc(C(F)(F)F)cc1 | -48.41
COc1ccc(NC(=O)N(C)C[C@@H]2Oc3cc(-c4ccc(C)cc4)ccc3S(=O)(=O)N([C@@H](C)CO)C[C@@H]2C)cc1 | -57.42
C[C@@H]1CN([C@@H](C)CO)C(=O)c2cc(NC(=O)c3ccncc3)ccc2O[C@@H](C)CCCCO[C@H]1CN(C)C(=O)Nc1cccc2ccccc12 | -61.1
CCCNC(=O)N1[C@H](C#N)[C@H](c2ccc(-c3ccccc3F)cc2)[C@@H]1CO | -32.37
COc1cccc(NC(=O)N2CC(=O)N3[C@H](C2)[C@@H](c2ccc(C#CCC4CCCC4)cc2)[C@@H]3CO)c1 | -52.15
CC(C)CC#Cc1cnc2c(c1)C(=O)N([C@@H](C)CO)C[C@@H](C)[C@@H](CN(C)C(=O)Nc1cc(F)ccc1F)O2 | -23.24
C[C@@H]1CN([C@H](C)CO)S(=O)(=O)c2ccc(C#Cc3cccnc3)cc2O[C@H]1CN(C)CC1CCCC1 | -29.76
COC(=O)[C@]1(CCC(=O)OC(C)(C)C)N=C(c2ccc(OCCCO)cc2)O[C@@H]1c1ccccc1 | -56
C[C@@H]1CN([C@@H](C)CO)C(=O)c2cccc(NC(=O)c3ccc(-c4nccs4)cc3)c2O[C@@H]1CN(C)C(=O)Nc1ccc(C(F)(F)F)cc1 | -46.08
C[C@@H]1CN([C@@H](C)CO)C(=O)c2cc(NS(=O)(=O)c3ccc(F)cc3)ccc2O[C@@H]1CN(C)Cc1ccc(-c2ccccc2)cc1 | -35.2
COc1ccc(S(=O)(=O)N(C)C[C@H]2Oc3ncc(C#CC4(O)CCCC4)cc3C(=O)N([C@@H](C)CO)C[C@@H]2C)cc1 | -25.9
COc1ccc(CN(C)C[C@H]2OCCCC[C@H](C)Oc3ccc(NC(=O)Nc4ccc(OC)cc4)cc3C(=O)N([C@@H](C)CO)C[C@@H]2C)cc1 | -54.45
COc1ccc(NC(=O)Nc2cccc3c2O[C@@H](CN(C)C(=O)NC2CCCCC2)[C@@H](C)CN([C@H](C)CO)C3=O)cc1 | -21.34
C[C@@H]1CN([C@H](C)CO)C(=O)c2cc(NS(=O)(=O)c3ccccc3)ccc2O[C@@H](C)CCCCO[C@H]1CN(C)S(=O)(=O)c1cccs1 | -55.2

Some entries from above, unchanged:

{"structure": "COc1ccc(NC(=O)Nc2cccc3c2O[C@@H](CN(C)C(=O)NC2CCCCC2)[C@@H](C)CN([C@H](C)CO)C3=O)cc1", "activity change (Venus) (%)": "-21.34"}
{"structure": "C[C@H]1CN([C@@H](C)CO)S(=O)(=O)c2ccc(C#Cc3ccc(F)cc3)cc2O[C@H]1CN(C)C(=O)NC1CCCC1", "activity change (Venus) (%)": "-57.12"}

The results are deposited in PubChem (AID1053133; Broad Institute, 2014).